According to PubChem BioAssay (NCATS):
Inconclusive means that the source gave no clear call. Such entries were picked first, then a sample of the others. Potencies beside an inconclusive call are fits to weak or partial responses and may not hold up. The source made the active and inactive calls. The call rests on the fitted dose curve; in most records, active means well fitted curve in the direction sought with a large enough effect; inconclusive means small, poorly fitted or top-dose-only effect, or another doubt; inactive means no such curve, though single readings can be large; an effect the other way counts as inactive or inconclusive.

What was measured:
[1] = Quantitative High-Throughput drug screen in 47 multiple myeloma cell lines against the NCATS MIPE library collection: Karpas417_ECACC cell viability assay (AID 1918961); settings: Karpas417 myeloma viability, CellTiter-Glo ATP luminescence, 48 h; viability (% of DMSO): at 45.8 µM (top of the series)
Procedure, shortened: (§1)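 Approved and investigational drugs from MIPE 4.0 were added by pin tool to 500 cells per well. After 48 hours at 37C, ATP-based CellTiter-Glo luminescence indicated remaining viability.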

[2] = Quantitative High-Throughput drug screen in 47 multiple myeloma cell lines against the NCATS MIPE library collection: KHM11_PLB cell viability assay (AID 1918962); settings: KHM11 myeloma cell viability, CellTiter-Glo ATP luminescence, 48 h; viability, % of DMSO control: at 45.8 µM (top of the series); further: nearly all actives have a fitted effect of over 35% in size
Procedure, shortened: (§2)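 Viability readout: CellTiter-Glo luminescence following 5 min room-temperature incubation with reagent. Prior exposure: 48 h, 37C, humidified 5% CO2, 500 cells per well.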

[3] = Quantitative High-Throughput drug screen in 47 multiple myeloma cell lines against the NCATS MIPE library collection: JIM3_ECACC cell viability assay (AID 1918963; further: nearly all actives have a fitted effect of over 35% in size); settings: JIM3 myeloma viability, CellTiter-Glo ATP, 48 h; viability, percent of control: at 45.8 µM (top of the series)
Procedure, shortened: as §2

[4] = Quantitative High-Throughput drug screen in 47 multiple myeloma cell lines against the NCATS MIPE library collection: JIM1_ECACC cell viability assay (AID 1918964); settings: JIM1 myeloma viability, CellTiter-Glo ATP luminescence, 48 h; viability (% of DMSO): at 45.8 µM (top of the series)
Procedure, shortened: (§3)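 Myeloma cell lines, 500 cells per well, exposed to MIPE 4.0 library compounds for 48 h at 37C, 5% CO2. Viability from ATP by CellTiter-Glo luminescence; normalised to DMSO (100%) and media-only (0%) wells.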

[5] = Quantitative High-Throughput drug screen in 47 multiple myeloma cell lines against the NCATS MIPE library collection: INA6_PLB cell viability assay (AID 1918965; further: nearly all actives have a fitted effect of over 55% in size); settings: INA6 myeloma viability, CellTiter-Glo ATP luminescence, 48 h; viability (% of control): at 45.8 µM (top of the series)
Procedure, shortened: as §1

[6] = Quantitative High-Throughput drug screen in 47 multiple myeloma cell lines against the NCATS MIPE library collection: JJN3_DSMZ cell viability assay (AID 1918966; further: nearly all actives have a fitted effect of over 50% in size)
Procedure, shortened: as §3

[7] = Quantitative High-Throughput drug screen in 47 multiple myeloma cell lines against the NCATS MIPE library collection: Karpas25_ECACC cell viability assay (AID 1918968; further: nearly all actives have a fitted effect of over 35% in size)
Procedure, shortened: as §3

[8] = Quantitative High-Throughput drug screen in 47 multiple myeloma cell lines against the NCATS MIPE library collection: KMS27_JCRB cell viability assay (AID 1918970); settings: KMS27 myeloma cells, CellTiter-Glo ATP viability, 48 h; viability (% of DMSO): at 45.8 µM (top of the series); further: nearly all actives have a fitted effect of over 30% in size
Procedure, shortened: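 Each line is seeded at 500 cells per well and treated with library compounds for 48 hours under 37 °C, 5% CO2. CellTiter-Glo is then added for 5 min at room temperature before median relative luminescence is recorded.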

[9] = Quantitative High-Throughput drug screen in 47 multiple myeloma cell lines against the NCATS MIPE library collection: KMS12BM_JCRB cell viability assay (AID 1918971); further: nearly all actives have a fitted effect of over 35% in size
Procedure, shortened: (§4)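 Relative luminescence from CellTiter-Glo served as the viability signal, referenced to DMSO-treated (100%) and cell-free medium (0%) controls. Treatment lasted 48 hours at 37C with 500 cells per well.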

[10] = Quantitative High-Throughput drug screen in 47 multiple myeloma cell lines against the NCATS MIPE library collection: KMS12PE_JCRB cell viability assay (AID 1918972); settings: KMS12PE myeloma viability, CellTiter-Glo ATP, 48 h; viability: at 45.8 µM (top of the series); further: nearly all actives have a fitted effect of over 30% in size
Procedure, shortened: as §1

[11] = Quantitative High-Throughput drug screen in 47 multiple myeloma cell lines against the NCATS MIPE library collection: KMS20_JCRB cell viability assay (AID 1918973); settings: CellTiter-Glo ATP, 48 h; viability (% of DMSO): at 45.8 µM (top of the series); further: nearly all actives have a fitted effect of over 45% in size
Procedure, shortened: as §3

[12] = Quantitative High-Throughput drug screen in 47 multiple myeloma cell lines against the NCATS MIPE library collection: KMS21BM_JCRB cell viability assay (AID 1918974); settings: ATP luminescence, 48 h; viability: at 45.8 µM (top of the series)
Procedure, shortened: as §3

[13] = Quantitative High-Throughput drug screen in 47 multiple myeloma cell lines against the NCATS MIPE library collection: KMS26_JCRB cell viability assay (AID 1918975); settings: KMS26 myeloma cells viability, CellTiter-Glo ATP, 48 h; viability (% of DMSO): at 45.8 µM (top of the series); further: nearly all actives have a fitted effect of over 45% in size
Procedure, shortened: as §4

[14] = Quantitative High-Throughput drug screen in 47 multiple myeloma cell lines against the NCATS MIPE library collection: MOLP8_DSMZ cell viability assay (AID 1918977); further: nearly all actives have a fitted effect of over 45% in size
Procedure, shortened: (§5)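 MIPE 4.0 approved/investigational drugs; 500 cells/well; 48 h 37 °C humidified 5% CO2; CTG luminescence readout; DMSO = 100%, media = 0% viability.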

[15] = Quantitative High-Throughput drug screen in 47 multiple myeloma cell lines against the NCATS MIPE library collection: OCIMY1_PLB cell viability assay (AID 1918979); further: nearly all actives have a fitted effect of over 35% in size
Procedure, shortened: as §5

[16] = Quantitative High-Throughput drug screen in 47 multiple myeloma cell lines against the NCATS MIPE library collection: MM1S_ATCC cell viability assay (AID 1918980); further: nearly all actives have a fitted effect of over 45% in size
Procedure, shortened: as §5

[17] = Quantitative High-Throughput drug screen in 47 multiple myeloma cell lines against the NCATS MIPE library collection: MMM1_PLB cell viability assay (AID 1918976); further: nearly all actives have a fitted effect of over 35% in size
Procedure, shortened: as §5

[18] = Quantitative High-Throughput drug screen in 47 multiple myeloma cell lines against the NCATS MIPE library collection: NCIH929_DSMZ cell viability assay (AID 1918978); settings: NCI-H929 myeloma viability, CellTiter-Glo ATP, 48 h; viability, % of control: at 45.8 µM (top of the series); further: nearly all actives have a fitted effect of over 35% in size
Procedure, shortened: as §5

[19] = Quantitative High-Throughput drug screen in 47 multiple myeloma cell lines against the NCATS MIPE library collection: MM1R_ATCC cell viability assay (AID 1918981); further: nearly all actives have a fitted effect of over 35% in size
Procedure, shortened: as §5

[20] = Quantitative High-Throughput drug screen in 47 multiple myeloma cell lines against the NCATS MIPE library collection: H1112_PLB cell viability assay (AID 1918967; further: nearly all actives have a fitted effect of over 30% in size)
Procedure, shortened: as §3
Potency means the concentration at half of the fitted maximal effect.

CN[C@@H]1Cc2cccc3[nH]c(=O)n(c23)C1
inconclusive: Potency [1] 8.33 µM [rising, partial curve, poor fit] | Potency [2] 0.001 µM | Potency [4] 0.0526 µM [cytotoxic, full curve, poor fit] | Potency [9] 0.0019 µM [cytotoxic, full curve, poor fit] | Potency [10] 0.0187 µM [cytotoxic, full curve, poor fit] | Potency [11] 0.0083 µM [cytotoxic, full curve, poor fit] | Potency [12] 11.8 µM [rising, partial curve, poor fit] | Potency [14] 8.33 µM [cytotoxic, partial curve, poor fit] | Potency [16] 4.18 µM [cytotoxic, partial curve]
inactive: Potency [3] | Potency [5] | Potency [6] | Potency [7] | Potency [8] | Potency [13] | Potency [15]

Cn1cc(C2=C(c3cn(C4CCN(Cc5ccccn5)CC4)c4ccccc34)C(=O)NC2=O)c2ccccc21
active: Potency [3] 8.33 µM | Potency [4] 1.32 µM | Potency [7] 8.33 µM | Potency [8] 18.7 µM | Potency [12] 0.166 µM | Potency [16] 7.43 µM
inactive: Potency [14]
inconclusive: Potency [1] 9.35 µM [cytotoxic, partial curve, poor fit] | Potency [2] 11.8 µM [cytotoxic, partial curve] | Potency [11] 16.6 µM [cytotoxic, partial curve, poor fit] | Potency [17] 23.5 µM [cytotoxic, partial curve, poor fit]

COc1ccc(C(=O)c2c(C)n(CCN3CCOCC3)c3ccccc23)cc1
inconclusive: Potency [1] 8.33 µM [cytotoxic, full curve, poor fit] | Potency [4] 37.2 µM [rising, partial curve, poor fit] | Potency [5] 0.0037 µM [rising, full curve, poor fit] | Potency [6] 0.105 µM [rising, full curve, poor fit] | Potency [7] 0.001 µM | Potency [10] 33.2 µM [cytotoxic, single point] | Potency [11] 0.132 µM [cytotoxic, full curve, poor fit] | Potency [12] 0.0033 µM [cytotoxic, full curve, poor fit] | Potency [13] 20.9 µM [cytotoxic, single point] | Potency [17] 0.0012 µM [rising, full curve, poor fit] | Potency [16] 0.001 µM [cytotoxic]
inactive: Potency [2] | Potency [3] | Potency [9] | Potency [14] | Potency [15]

CCCC(C)(COC(N)=O)COC(=O)NC(C)C (stereo not given)
active: viability (% of DMSO) [1] 64.9%
inactive: Potency [4] | Potency [5] | Potency [8] | Potency [13] | Potency [14] | Potency [18] | Potency [15] | Potency [19]
inconclusive: Potency [2] 0.118 µM [rising, full curve, poor fit] | Potency [3] 0.372 µM [rising, partial curve, poor fit] | Potency [6] 0.0017 µM [rising, full curve, poor fit] | Potency [9] 0.001 µM | Potency [11] 0.0012 µM [cytotoxic, full curve, poor fit] | Potency [17] 0.0037 µM [rising, full curve, poor fit] | Potency [16] 0.0743 µM [rising, full curve, poor fit]

O=P1(N(CCCl)CCCl)NCCCO1 (stereo not given)
inconclusive: Potency [3] 1.48 µM [cytotoxic, partial curve, poor fit] | Potency [4] 18.7 µM [cytotoxic, partial curve, poor fit] | Potency [5] 10.5 µM [cytotoxic, full curve, poor fit] | Potency [6] 33.2 µM [cytotoxic, single point] | Potency [7] 20.9 µM [cytotoxic, partial curve] | Potency [9] 1.18 µM [cytotoxic, full curve, poor fit] | Potency [11] 37.2 µM [cytotoxic, single point] | Potency [13] 3.72 µM [cytotoxic, full curve, poor fit] | Potency [14] 9.35 µM [cytotoxic, full curve, poor fit] | Potency [19] 0.0066 µM [cytotoxic, full curve, poor fit]
inactive: Potency [1] | Potency [2] | Potency [15] | Potency [16]
active: Potency [12] 14.8 µM | Potency [17] 2.35 µM

CCNC(=O)CC1N=C(c2ccc(Cl)cc2)c2cc(OC)ccc2-n2c(C)nnc21 (stereo not given)
active: Potency [1] 4.18 µM | Potency [12] 5.9 µM | Potency [13] 5.9 µM
inconclusive: Potency [2] 3.72 µM [cytotoxic, partial curve] | Potency [3] 14.8 µM [cytotoxic, partial curve, poor fit] | Potency [6] 5.26 µM [cytotoxic, full curve, poor fit] | Potency [20] 8.33 µM [cytotoxic, full curve] | Potency [7] 13.2 µM [cytotoxic, partial curve] | Potency [8] 16.6 µM [cytotoxic, partial curve] | Potency [11] 11.8 µM [cytotoxic, partial curve, poor fit] | Potency [14] 4.69 µM [cytotoxic, partial curve]

C[C@H]([C@H](O)CCC(C)(C)O)[C@H]1CC[C@@]2(O)C3=CC(=O)[C@@H]4C[C@@H](O)[C@@H](O)C[C@]4(C)[C@@H]3CC[C@]12C
inactive: Potency [2] | Potency [3] | Potency [5] | Potency [13] | Potency [15] | Potency [16]
inconclusive: Potency [1] 20.9 µM [cytotoxic, single point] | Potency [4] 0.662 µM [cytotoxic, full curve, poor fit] | Potency [6] 18.7 µM [cytotoxic, partial curve, poor fit] | Potency [9] 1.05 µM [cytotoxic, full curve, poor fit] | Potency [11] 4.69 µM [rising, partial curve, poor fit] | Potency [12] 8.33 µM [cytotoxic, partial curve, poor fit] | Potency [14] 7.43 µM [cytotoxic, full curve, poor fit]

C[C@](O)(COc1ccc(C#N)cc1)C(=O)Nc1ccc(C#N)c(C(F)(F)F)c1
inconclusive: Potency [2] 33.2 µM [cytotoxic, single point] | Potency [3] 33.2 µM [cytotoxic, single point] | Potency [4] 20.9 µM [cytotoxic, partial curve, poor fit] | Potency [5] 20.9 µM [cytotoxic, partial curve, poor fit] | Potency [8] 37.2 µM [cytotoxic, single point] | Potency [9] 0.0047 µM [rising, full curve, poor fit] | Potency [10] 20.9 µM [cytotoxic, partial curve] | Potency [11] 16.6 µM [cytotoxic, partial curve, poor fit] | Potency [13] 0.0105 µM [rising, full curve, poor fit] | Potency [17] 0.0264 µM [rising, full curve] | Potency [14] 0.166 µM [rising, full curve, poor fit] | Potency [18] 29.6 µM [cytotoxic, single point] | Potency [16] 26.4 µM [cytotoxic, single point] | Potency [19] 0.0033 µM [rising, full curve, poor fit]
inactive: Potency [6]
active: Potency [1] 23.5 µM

CN(C)CCN(C)CCc1ccc(Cl)c(Cl)c1
inactive: Potency [3] | Potency [5] | Potency [6] | Potency [20] | Potency [9] | Potency [11] | Potency [18] | Potency [19]
inconclusive: Potency [1] 2.96 µM [cytotoxic, full curve, poor fit] | Potency [2] 5.9 µM [rising, partial curve, poor fit] | Potency [4] 0.0264 µM [rising, full curve, poor fit] | Potency [7] 0.0021 µM [rising, full curve, poor fit] | Potency [12] 9.35 µM [cytotoxic, full curve, poor fit] | Potency [17] 0.0042 µM [rising, full curve] | Potency [14] 0.0526 µM [rising, full curve, poor fit] | Potency [15] 0.0019 µM [cytotoxic, full curve, poor fit] | Potency [16] 0.0033 µM [rising, full curve, poor fit]

C=C[C@@H]1CN2CCC1C[C@@H]2[C@@H](O)c1ccnc2ccccc12 (stereo not given in full)
inconclusive: viability (% of DMSO) [1] 125% | Potency [2] 10.5 µM [cytotoxic, full curve] | Potency [3] 8.33 µM [cytotoxic, full curve] | Potency [4] 10.5 µM [cytotoxic, single point] | Potency [6] 14.8 µM [cytotoxic, partial curve] | Potency [20] 9.35 µM [cytotoxic, partial curve] | Potency [11] 9.35 µM [cytotoxic, full curve] | Potency [12] 37.2 µM [rising, partial curve, poor fit] | Potency [13] 10.5 µM [cytotoxic, partial curve, poor fit] | Potency [14] 26.4 µM [cytotoxic, single point]
active: Potency [8] 5.26 µM | Potency [9] 23.5 µM | Potency [17] 18.7 µM
